Laboratory results reported in PubChem BioAssay AID248 (DTP/NCI, 2004).
The list is a part of this screen's results and no random one: it is rich in T/C values a quarter to a half above the control, in often repeated tests (any T/C) and in doses without a T/C. Other doses and runs of a compound stand elsewhere. T/C gives the treated animals as a percentage of the vehicle group. Some entries give survivors of the animals treated and no T/C: the source holds a T/C of zero for them, seemingly a mark for toxic or unscored doses. Some doses without a T/C left all or most animals alive at the check, yet need not have been tolerated: the source hardly ever lists a survival T/C far under the control, and the zero likely stands for such cases as well. Counts of survivors are from the toxicity check (mostly the fifth day) where no day follows; animals may have died later. Schedule codes are those of the source, taken here to give the interval after Q, in days (D) or hours (H), and the number of doses after X.

System: L1210 leukemia ip in BDF1 mice, survival T/C
Assay: NCI In Vivo Anticancer Drug Screen. Data for tumor model L1210 Leukemia (intraperitoneal) in B6D2F1 (BDF1) mice
Conditions: T/C endpoint: mean survival time, higher T/C = longer survival

## Cc1cc[n+](CCCCCCCCCCO)cc1
dose: 62.5 mg/kg/injection, schedule: Q01DX001 (ip), vehicle: saline
  survivor count: 0 of 6
dose: 125.0 mg/kg/injection, schedule: Q01DX001 (ip), vehicle: saline
  survivor count: 0 of 6
dose: 250.0 mg/kg/injection, schedule: Q01DX001 (ip), vehicle: saline
  survivor count: 0 of 6

## COc1ccc(C2NC(=O)N3C(c4ccc(OC)cc4)NC(=O)N23)cc1 (stereo not drawn)
dose: 200.0 mg/kg/injection, schedule: Q04DX003 (ip), vehicle: gum acacia
  survivor count: 6 of 6

## O=C1C2C3CCC(O3)C2C(=O)N1Cc1ccccc1CBr (stereo not drawn)
dose: 400.0 mg/kg/injection, schedule: Q04DX003 (ip), vehicle: carboxymethylcellulose (CMC)
  survivor count: 5 of 6

## Nc1nc(N)c2c(n1)CCCC2
dose: 100.0 mg/kg/injection, schedule: Q04DX003 (ip), vehicle: saline with Tween-80
  survivor count: 6 of 6
dose: 200.0 mg/kg/injection, schedule: Q04DX003 (ip), vehicle: saline with Tween-80
  survivor count: 2 of 6
dose: 400.0 mg/kg/injection, schedule: Q04DX003 (ip), vehicle: saline with Tween-80
  survivor count: 5 of 6
